These are yes or no findings as the source states them, for the method shown. In cells and extracts the contact can be indirect. Some entries that bind do so weakly or less than the wild type.
Experiments:
[1] = target: HA-tagged Xenopus tropicalis Ago2 (Xenopus tropicalis) (UniProt Q6DJB9); assay: co-IP; anti-HA-biotin antibodies on streptavidin Dynabeads; lysate of oocytes injected with xtAgo2-HA mRNA (with or without progesterone); 150 mM NaCl, 25 mM Tris-HCl pH 7.4, 5 mM EDTA, 0.5% NP40, 5 mM DTT; 2 h at 4°C; blot with anti-HA and anti-CPEB1
[2] = target: human Ago2 (FLAG/HA-tagged) (human) (UniProt Q9UKV8); assay: co-IP; FLAG-M2 magnetic beads; lysate of oocytes injected with hAgo2-FLAG mRNA, lysed in NET buffer with 20 pg/μl RNAse A; 2 h 30 min at 4°C; blot with anti-FLAG and anti-CPEB1

By UniProt entry, the sequences of proteins in these tests, tags left out.
UniProt Q9UKV8: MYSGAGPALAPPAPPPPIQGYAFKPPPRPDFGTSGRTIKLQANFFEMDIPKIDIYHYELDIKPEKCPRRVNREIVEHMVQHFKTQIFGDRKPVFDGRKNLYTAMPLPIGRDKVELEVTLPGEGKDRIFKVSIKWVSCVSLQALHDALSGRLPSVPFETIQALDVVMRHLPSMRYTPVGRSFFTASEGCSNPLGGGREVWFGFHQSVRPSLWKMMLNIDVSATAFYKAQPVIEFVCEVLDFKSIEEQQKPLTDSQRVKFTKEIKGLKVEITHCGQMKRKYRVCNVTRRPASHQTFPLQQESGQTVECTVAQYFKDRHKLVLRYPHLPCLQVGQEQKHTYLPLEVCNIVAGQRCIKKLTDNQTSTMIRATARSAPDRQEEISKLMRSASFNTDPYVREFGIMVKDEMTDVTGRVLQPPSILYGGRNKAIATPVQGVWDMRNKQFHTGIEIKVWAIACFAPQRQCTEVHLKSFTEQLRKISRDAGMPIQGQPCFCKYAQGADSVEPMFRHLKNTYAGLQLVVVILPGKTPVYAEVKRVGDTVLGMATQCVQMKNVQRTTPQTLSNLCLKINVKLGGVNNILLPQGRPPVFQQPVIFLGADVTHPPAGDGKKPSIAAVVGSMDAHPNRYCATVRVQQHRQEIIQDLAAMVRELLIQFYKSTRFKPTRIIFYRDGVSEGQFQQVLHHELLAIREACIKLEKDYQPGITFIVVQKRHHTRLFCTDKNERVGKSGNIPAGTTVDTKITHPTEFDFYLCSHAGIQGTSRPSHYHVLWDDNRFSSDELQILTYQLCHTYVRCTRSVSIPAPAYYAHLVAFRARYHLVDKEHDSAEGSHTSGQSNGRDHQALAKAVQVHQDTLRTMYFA
UniProt Q91572: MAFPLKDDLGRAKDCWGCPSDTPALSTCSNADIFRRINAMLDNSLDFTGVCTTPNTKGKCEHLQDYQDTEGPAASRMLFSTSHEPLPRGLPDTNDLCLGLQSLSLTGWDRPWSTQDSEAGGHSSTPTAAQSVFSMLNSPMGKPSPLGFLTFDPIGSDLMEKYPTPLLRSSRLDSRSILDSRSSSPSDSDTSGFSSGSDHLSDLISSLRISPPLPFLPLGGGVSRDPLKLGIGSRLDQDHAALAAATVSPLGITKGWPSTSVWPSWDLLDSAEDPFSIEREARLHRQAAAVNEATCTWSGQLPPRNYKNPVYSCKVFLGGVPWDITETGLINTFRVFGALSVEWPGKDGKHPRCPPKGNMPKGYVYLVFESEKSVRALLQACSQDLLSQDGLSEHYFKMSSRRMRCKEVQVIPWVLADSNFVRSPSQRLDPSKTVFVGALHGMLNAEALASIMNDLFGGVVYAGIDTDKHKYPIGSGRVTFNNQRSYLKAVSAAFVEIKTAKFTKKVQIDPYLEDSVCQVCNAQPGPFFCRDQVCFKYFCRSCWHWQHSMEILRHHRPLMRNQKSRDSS

- binding [1]: binds
- binding [2]: binds
Substance: CPE-binding protein (CPEB) (from UniProt Q91572 1-568)
